# Library screen at single concentrations

By UniProt entry, the sequences of proteins in these tests, tags left out. Residues count along the entry.
UniProt A4I591, 1-473: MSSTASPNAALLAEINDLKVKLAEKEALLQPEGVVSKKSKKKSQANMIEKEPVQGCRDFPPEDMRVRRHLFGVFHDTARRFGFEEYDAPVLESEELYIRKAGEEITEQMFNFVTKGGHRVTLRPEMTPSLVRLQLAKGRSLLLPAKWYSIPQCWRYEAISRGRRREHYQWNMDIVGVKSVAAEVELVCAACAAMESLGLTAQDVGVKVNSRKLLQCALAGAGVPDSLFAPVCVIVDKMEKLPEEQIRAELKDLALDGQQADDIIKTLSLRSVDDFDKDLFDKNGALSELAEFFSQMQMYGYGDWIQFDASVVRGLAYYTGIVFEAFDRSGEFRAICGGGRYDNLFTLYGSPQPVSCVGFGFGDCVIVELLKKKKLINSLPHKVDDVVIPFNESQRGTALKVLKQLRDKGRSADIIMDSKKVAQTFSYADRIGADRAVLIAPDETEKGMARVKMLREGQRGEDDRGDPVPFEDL

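Histidine-tRNA ligase, Leishmania infantum (UniProt A4I591). Enzyme assay of histidyl-tRNA synthetase; the read-out is not stated. Compounds at 30 µM. The record gives no direction; compounds that gave an IC50 in retests scored well above the rest, so higher reads as stronger inhibition. The assay is labelled LdHisRS but filed under L. infantum. About 69,000 compounds were tested under these conditions; 0.6% (about 410) showed 50% or more at least once.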

Each number is a percent effect as filed.
The controls that fix the scale are not given in the record; negative values are as filed.
This is an unselected part of the compounds tested.

| # | compound | percent effect |
|---|---|---|
| 1 | `CO[C@@H]1c2ccccc2C2(CCN(C(=O)CNS(C)(=O)=O)CC2)[C@H]1O` | -3.333 |
| 2 | `O=C(NCC(F)(F)F)C1CN(C(=O)c2cnccn2)C1` | 15.65 |
| 3 | `O=C(O)C1(n2ccnc2)CCN(Cc2ccc3occc3c2)CC1` | 10.96 |
| 4 | `Cc1cnn(CC(C)NCc2ccc(OCc3ccncc3)cc2)c1` (stereo not given) | 5.405 |
| 5 | `Cc1cc(C2CCCN(C(=O)c3c(C)noc3C)C2)n[nH]1` (stereo not given) | 14.29 |
| 6 | `Cc1noc(Cl)c1CC(=O)N1CCCC(n2cccn2)C1` (stereo not given) | 19.7 |
| 7 | `CN(C)C(=O)CO[C@@H]1CC[C@H]2[C@H]1OCCN2c1ncccn1` | 14.04 |
| 8 | `CC(C)c1nc(C2CCCN2C(=O)CCn2cncn2)no1` (stereo not given) | 0 |
| 9 | `O=C(C1COCCO1)N1CCN(CC(F)(F)F)c2ccccc21` (stereo not given) | 17.65 |
| 10 | `CCc1nnc(C(C)N2CCN(CCC(C)(C)C)CC2)o1` (stereo not given) | 3.529 |
| 11 | `CC(=O)N1CCC(c2cc(Nc3ncccn3)nc(C)n2)C1` (stereo not given) | 10 |
| 12 | `CCOc1ccc(S(=O)(=O)NC(=O)CCC2CCCO2)cc1` (stereo not given) | 38.1 |
| 13 | `CC(C)N1CCC2(CCCNC2)C1=O` (stereo not given) | -1.923 |
| 14 | `CC(=O)N1CCc2[nH]cnc2C12CCN(C(=O)Cc1ccccn1)CC2` | 25.64 |
| 15 | `CCCN1CCN(c2ccc(-c3nc(C)no3)cn2)CC1` | -6.452 |
| 16 | `O=C1CCCN1CCCC(=O)N1CCCCC1c1ccc(F)cc1` (stereo not given) | 17.58 |
| 17 | `COc1c(CNCCNC(=O)c2ccccc2)c(C)nn1C` | 18.18 |
| 18 | `O=C(O)c1cccnc1CN1CCOc2ccccc2C1` | 14.47 |
| 19 | `CCC(C)N(Cc1cccnc1)C(=O)CCSC` (stereo not given) | 9.6 |
| 20 | `OCCN1CCCC(c2nccnc2Oc2ccc(F)cc2)C1` (stereo not given) | 6 |
| 21 | `O=C(C1CCOCC1)N1C[C@H](OCc2cccnc2)[C@H]2COC[C@H]21` | 5.556 |
| 22 | `Cc1nc(O)cc(C2(C)CCCNC2)n1` (stereo not given) | 6.993 |
| 23 | `O=C1C[C@H]2CC[C@@H](CN1)N2C1CCOCC1` | 13.27 |
| 24 | `Cn1cc(C2CCCN2C(=O)Cn2c(=O)oc3ccccc32)cn1` (stereo not given) | 8.333 |
| 25 | `CCc1nc(CN(C)C2CCN(CCC(=O)N3CCCCC3)C2)no1` (stereo not given) | 10.71 |
| 26 | `COCCCOC1CN(C(=O)c2[nH]nc3c2CCCC3)C1` | 8.475 |
| 27 | `Cc1cc(C)n(CC2CN(Cc3cnc(C)s3)CCO2)n1` (stereo not given) | 11.01 |
| 28 | `CCCNC(=O)C[C@@H]1CCN(C(=O)c2cccnc2)C[C@@H]1CC` | 25 |
| 29 | `CC(NC(=O)CSCC#N)c1ccc(F)cc1` (stereo not given) | 16.67 |
| 30 | `CCSCCC(C)N(C)C(=O)c1cc(C)on1` (stereo not given) | 10.96 |
| 31 | `Cc1nn(C)c(C)c1C(=O)N1CCN(C(=O)CC2CCCCC2)CC1` | 13.49 |
| 32 | `CN(CCCc1nccn1C)C(=O)C1CCN(C(=O)C2CCC2)CC1` | 16.95 |
| 33 | `CCO[C@H]1CN(C(=O)c2ccc3c(c2)OCO3)[C@@H]2COC[C@H]12` | -3.419 |
| 34 | `COCCN1CCC(NCc2ccc(C#N)cc2)C1` (stereo not given) | 21.92 |
| 35 | `CC(C)N1CCC(CNCc2c[nH]nc2C(C)(C)C)C1` (stereo not given) | 28.57 |
| 36 | `CC(C)COCCC(=O)Nc1c(-c2ccc(F)cc2)ncn1C` | 12.7 |
| 37 | `CC(C)Cc1nc(NC(=O)c2cc(-c3cccnc3)n[nH]2)n[nH]1` | 19.57 |
| 38 | `CCC(CN1CCCC1)n1cncc1-c1cnn(Cc2ccccc2)c1` (stereo not given) | 15.49 |
| 39 | `CCCNC(=O)C(C)n1cc(Br)cn1` (stereo not given) | 10.38 |
| 40 | `COc1cc(C(=O)NS(=O)(=O)c2cccc(C#N)c2)cc(OC)c1C` | 16.96 |
| 41 | `CC(=O)Nc1cc(C(=O)Nc2cc(CC(C)(C)C)nn2C)ccc1F` | 16.67 |
| 42 | `COCCN1C(=O)CC[C@]12CC[C@@H](NC(=O)c1cnccn1)CC2` | -178.8 |
| 43 | `O=C(CCc1ccc(F)cc1)NCc1ccnc(NC2CC2)c1` | 18.42 |
| 44 | `c1ccc2c(c1)CC(Cc1cc(N3CCCC3)cnn1)CCO2` (stereo not given) | 43.01 |
| 45 | `O=C(c1ccco1)N1CCc2ncnc(NCc3ccccn3)c2CC1` | 5 |
| 46 | `CN(Cc1cncnc1)[C@@H]1CN(C(=O)C2CC2)[C@@H]2CCCO[C@H]12` | 6.364 |
| 47 | `COCCn1ccc2c(C(=O)NC3CN4CCC3CC4)cccc21` (stereo not given) | 13.16 |
| 48 | `CCC(CC)CNCC1(S(C)(=O)=O)CCOCC1` | 11.69 |
| 49 | `Fc1cccc2[nH]c(CN3CCc4cncnc4C3)nc12` | 43.43 |
| 50 | `COc1ccc(CN2C[C@@H](CN(C)C)[C@@H](CO)C2)cc1OC` | 13.22 |
| 51 | `CN(CCCc1cc(-c2cccc(F)c2)n[nH]1)C(=O)Cn1cncn1` | 19.19 |
| 52 | `CC1(C)[C@H](Cc2cc(CO)on2)C[C@@H]1N(CC1CC1)CC1CC1` | 10.81 |

For reference, 5 entries once more:

{"compound": "CC(=O)N1CCc2[nH]cnc2C12CCN(C(=O)Cc1ccccn1)CC2", "percent effect": 25.64}
{"compound": "CC(C)N1CCC2(CCCNC2)C1=O", "stereo": "stereo not given", "percent effect": -1.923}
{"compound": "CCC(CN1CCCC1)n1cncc1-c1cnn(Cc2ccccc2)c1", "stereo": "stereo not given", "percent effect": 15.49}
{"compound": "Cc1cc(C)n(CC2CN(Cc3cnc(C)s3)CCO2)n1", "stereo": "stereo not given", "percent effect": 11.01}
{"compound": "CCCNC(=O)C[C@@H]1CCN(C(=O)c2cccnc2)C[C@@H]1CC", "percent effect": 25}

Source: ChEMBL document CHEMBL3988442, “University of Dundee, Small-Polar-MMV Screening Library” (2021).